Measurements reported in US20260256936A1 (priority 2023, published 2026).

Experiment: general procedure: peptide synthesis; HATU/DIEA; HOBt/DIEA
Conditions: late stage modification step

## (2S,3S,4S,5R,6R)-6-((S)-2-((S)-2-acetamido-3-methylbutanamido)-3-((3-((2-((((R)-4-amino-3-(2,5-dioxo-2,5-dihydro-1H-pyrrol-1-yl)butoxy)carbonyl)amino)ethyl)carbamoyl)-4-((5S,8S,11S,12R)-11-((S)-sec-butyl)-12-(2-((S)-2-((1R,2R)-3-(((1S,2R)-1-hydroxy-1-phenylpropan-2-yl)amino)-1-methoxy-2-methyl-3-oxopropyl)pyrrolidin-1-yl)-2-oxoethyl)-5,8-diisopropyl-4,10-dimethyl-3,6,9-trioxo-2,13-dioxa-4,7,10-triazatetradecyl)phenyl)amino)-3-oxopropoxy)-3,4,5-trihydroxytetrahydro-2H-pyran-2-carboxylic acid—formic acid (1/1)
  step yield: 65.8%
